Reference: the supplement of paper PMC3334620
Whole data set: some 33,000 sequences, median “E-score (-0.5 to 0.5)” near -0.015, cut for the highest 2% near 0.3. This is one part of the list.

molecular target: T1, Abf1 (UniProt P14164); assay: PBM E-score (8-mer binding enrichment) (E-score (-0.5 to 0.5)); higher = stronger / more preferred TF binding; settings: protein concentration: 200 nM; construct: GST-full length
T1 sequence: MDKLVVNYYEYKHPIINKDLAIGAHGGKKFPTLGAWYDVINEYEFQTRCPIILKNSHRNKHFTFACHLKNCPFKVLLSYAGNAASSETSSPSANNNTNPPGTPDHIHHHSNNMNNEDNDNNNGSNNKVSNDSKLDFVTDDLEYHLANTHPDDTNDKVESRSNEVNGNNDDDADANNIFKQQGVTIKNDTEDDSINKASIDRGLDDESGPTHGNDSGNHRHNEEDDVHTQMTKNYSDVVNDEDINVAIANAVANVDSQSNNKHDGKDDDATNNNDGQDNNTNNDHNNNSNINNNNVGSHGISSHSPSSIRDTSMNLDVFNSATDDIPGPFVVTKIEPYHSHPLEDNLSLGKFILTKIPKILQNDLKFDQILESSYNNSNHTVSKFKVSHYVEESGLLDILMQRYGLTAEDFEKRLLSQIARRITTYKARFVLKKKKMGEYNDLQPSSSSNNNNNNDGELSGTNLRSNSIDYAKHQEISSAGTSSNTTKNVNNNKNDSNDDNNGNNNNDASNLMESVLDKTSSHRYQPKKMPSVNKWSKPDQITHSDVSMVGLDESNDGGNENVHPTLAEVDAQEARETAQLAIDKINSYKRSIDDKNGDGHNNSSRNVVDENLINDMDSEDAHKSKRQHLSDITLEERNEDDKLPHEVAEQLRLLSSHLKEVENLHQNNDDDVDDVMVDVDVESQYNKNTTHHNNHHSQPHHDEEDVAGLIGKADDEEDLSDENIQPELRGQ
Method in brief: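 GST-tagged yeast TFs (full-length or DNA-binding domain) were made by PURExpress in vitro transcription/translation and applied at about 100-200 nM to universal all-10-mer Agilent arrays. The arrays were made double-stranded by primer extension, on fresh or once-stripped slides. Bound protein was detected with fluorescent anti-GST, and scans were normalised with masliner. Each ungapped eight-base word, pooled with its reverse complement, received an E-score (modified Wilcoxon-Mann-Whitney statistic) from the Universal PBM Analysis Suite.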

Sequence	PBM E-score
AGACGCAT	0.0143
CCATAAAG	-0.213
ATCTTGCC	0.188
CACAATCA	-0.0407
GGATACAC	-0.205
ATCCGCAC	0.025
TAATACTA	0.243
ACTGACTG	-0.262
ACGGAGCC	-0.105
AGGCGTAC	0.096
CCTAATGC	-0.035
AACGGACA	0.0722
CTGATAAC	0.167
ATCTAAAA	-0.0775
ACCCGAAT	-0.00013
CGCACTCC	-0.214
AATTTTTC	0.188
ACAACCGA	-0.0453
CGACCGTC	0.0699
ATTATGCC	0.0573
AGCTACCC	-0.0429
CAGACATG	-0.0504

Exported as labelled records: entries from further up.
AGACGCAT
  PBM E-score: 0.0143
CCATAAAG
  PBM E-score: -0.213
ATCTTGCC
  PBM E-score: 0.188
CACAATCA
  PBM E-score: -0.0407

The listing continues:

Sequence	PBM E-score
ATTGAAGA	0.0478
ATCCTCAC	0.0841
AAACCTCG	-0.208
ACAGTCCT	0.181
AATTCACT	-0.102
AGCGCGCG	0.22
GCTCGCTA	-0.212
AGTACCAT	0.0778
AGTGAGAA	0.175
TGGAATAA	-0.0654
ATAGGAGG	-0.189
CTGAGGGC	-0.171
ATAAATAT	0.316
TTACCCAA	-0.17
ACCACACT	-0.125
CGGTATCC	-0.0905
ATCCCTCC	-0.199
CGTGTAAC	0.237
GACGAAGA	0.253
ATAATTGA	0.226
TAGCTTGA	0.0104
CCCTCGCG	-0.184

Sequence	PBM E-score
TAGTGCGA	-0.0822
GAGATTAC	-0.0487
CGCACGGA	0.244
TCGCACCA	-0.133
GCGGCCAC	-0.221
CTACACCC	-0.203
CGGTCGCC	-0.00137
AGTAGAAA	0.168
CAACTTAA	0.201
CCTGTGCG	-0.148
CGATGTTA	0.207
GAAGTAAC	0.0861
CGGGGAAA	0.0305
TGCCATAA	-0.0485
CACTTACC	-0.018
GTGTGATA	0.327
AGGTTTAT	0.11
GTGCAACA	0.00885
TACCCTAA	-0.147
GCGACATA	0.277
AGGGTACC	-0.0961
ACGGATCC	0.155

Sequence	PBM E-score
GATATGCA	0.203
CAATGTGC	0.0204
ATGATCGA	0.149
AAGATGGC	0.0138
AATTCACC	0.0848
GATATCCC	0.0875
GTCTGGAA	-0.23
GACGTTAC	0.13
AAGGAGCG	-0.302
CATGTTGA	0.236
GCCGTCTA	0.277
AGATTGAT	-0.0616
GCATAGTA	0.0739
AAGACGTG	0.107
TCTTCAAA	-0.105
ATCCCTTA	0.0934
ATCTGTCG	-0.044
CCATGCTA	-0.175
AGGCACGG	0.062
GCCTACCA	-0.211
